One molecule from patent US6656695B2, “Biomap characterization of biologically active agents” (Bioseek, Inc., priority 2000, dated 2003) can be followed below.

Structures are written as SMILES.

For the series, the system named is HUVEC cells. As to the kind of experiment: optimized inflammatory assay combination: HUVEC treated with TNF-α+IFN-γ+IL-1, readout parameters by cell-based ELISA (biomap). The note with it: ibuprofen tested at 500, 250 and 125 μM; derived from the primary data. On the set-up: species or system human. The method, then: Primary human umbilical vein endothelial cells (HUVEC) are used. Other cells that may replace HUVEC in the screen include primary microvascular endothelial cells, aortic or arteriolar endothelial cells or endothelial cell lines such as EAhy926 or E6-[…]-5-2G cells or human telomerase reverse transcriptase-expressing endothelial cells (Simmons, J. Immunol., 148:267, 1992; Rhim, Carcinogenesis 19:673, 1998; Yang, J. Biol. Chem. 274:26141, 1999). 2×10^4 cells/ml are cultured to confluence in EGM-2 (Clonetics). […] After 24 hours, cultures are washed and evaluated for the presence of the parameters ICAM-1 (1), VCAM-1 (2), E-selectin (3), IL-8 (4), CD31 (5), HLA-DR (6) and MIG (7) by cell-based ELISA as described (Melrose, J. Immunol. 161:2457, 1998). […] Development is stopped by addition of H2SO4 and the absorbance at 450 nm (subtracting the background absorbance at 600 nm) is read with a Molecular Dynamics plate reader. […] In FIG. 3A, the relative expression of each parameter is shown along the y-axis as average value of the OD measured at 450 nm of triplicate samples. […]
(In general: ELISA stands for enzyme-linked immunosorbent assay.)

As for `CC(C)Cc1ccc(C(C)C(=O)O)cc1` (stereo not shown) [ibuprofen], the “correlation coefficients between biomaps at different concentrations (regression analysis)” value is recorded as 0.96-0.99.
